Source: publication doi:10.1101/2021.06.15.448540
These are yes or no findings as the source states them, for the method shown. Some entries that bind do so weakly or less than the wild type. For part of these data: Where a sequence is shown, tags or fusion partners need not be part of it.

T1: FhuCB subcomplex (wild type; membrane subunit FhuB and ATPase FhuC) (Escherichia coli) (UniProt P07821+P06972)
T1 sequence (chain, His-tag labeled with the red-tris-NTA 2nd generation dye (in the MST)) 1: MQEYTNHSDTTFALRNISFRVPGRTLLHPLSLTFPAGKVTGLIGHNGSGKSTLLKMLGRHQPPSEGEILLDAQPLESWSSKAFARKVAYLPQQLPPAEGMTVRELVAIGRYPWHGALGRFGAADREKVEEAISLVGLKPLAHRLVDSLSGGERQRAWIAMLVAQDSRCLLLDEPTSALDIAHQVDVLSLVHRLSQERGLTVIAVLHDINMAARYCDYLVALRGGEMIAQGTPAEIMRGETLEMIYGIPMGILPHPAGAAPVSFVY
T1 sequence (chain, His-tag labeled with the red-tris-NTA 2nd generation dye (in the MST)) 2: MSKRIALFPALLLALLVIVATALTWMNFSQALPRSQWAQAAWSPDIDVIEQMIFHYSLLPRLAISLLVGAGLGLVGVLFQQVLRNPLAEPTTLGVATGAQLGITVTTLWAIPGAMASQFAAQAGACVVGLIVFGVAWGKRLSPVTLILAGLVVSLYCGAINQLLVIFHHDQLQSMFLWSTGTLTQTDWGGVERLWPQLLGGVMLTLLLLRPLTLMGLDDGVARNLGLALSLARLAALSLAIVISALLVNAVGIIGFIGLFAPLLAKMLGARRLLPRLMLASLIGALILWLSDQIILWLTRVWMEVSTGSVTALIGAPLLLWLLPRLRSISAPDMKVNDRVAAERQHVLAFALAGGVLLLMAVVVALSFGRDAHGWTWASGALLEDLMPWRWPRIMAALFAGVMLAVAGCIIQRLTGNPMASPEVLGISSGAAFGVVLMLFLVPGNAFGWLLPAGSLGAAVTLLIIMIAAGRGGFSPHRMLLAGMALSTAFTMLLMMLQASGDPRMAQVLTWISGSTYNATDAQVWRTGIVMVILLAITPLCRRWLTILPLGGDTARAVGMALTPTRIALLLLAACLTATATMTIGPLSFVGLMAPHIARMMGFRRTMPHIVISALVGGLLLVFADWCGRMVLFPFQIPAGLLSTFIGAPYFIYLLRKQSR

T2: FhuB (membrane subunit, co-expressed with FhuC) (Escherichia coli) (UniProt P06972)
T2 sequence: T1 sequence (chain, His-tag labeled with the red-tris-NTA 2nd generation dye (in the MST)) 2

T3: FhuC (ATPase subunit, His-tagged, co-expressed with FhuB) (Escherichia coli) (UniProt P07821)
T3 sequence: T1 sequence (chain, His-tag labeled with the red-tris-NTA 2nd generation dye (in the MST)) 1

B1: FhuD (co-expressed from the whole FhuCDB operon, in the purified FhuCDB complex) (protein, UniProt P07822 31-296)
chain: AAIDPNRIVALEWLPVELLLALGIVPYGVADTINYRLWVSEPPLPDSVIDVGLRTEPNLELLTEMKPSFMVWSAGYGPSPEMLARIAPGRGFNFSDGKQPLAMARKSLTEMADLLNLQSAAETHLAQYEDFIRSMKPRFVKRGARPLLLTTLIDPRHMLVFGPNSLFQEILDEYGIPNAWQGETNFWGSTAVSIDRLAAYKDVDVLCFDHDNSKDMDALMATPLWQAMPFVRAGRFQRVPAVWFYGATLSAMHFVRVLDNAIGGKA
B2: FhuB (membrane subunit, co-expressed with FhuC) (protein, UniProt P06972 1-660)
chain: T1 sequence (chain, His-tag labeled with the red-tris-NTA 2nd generation dye (in the MST)) 2

Columns and labels:
[1] = biological target: T1, FhuCB subcomplex (wild type; membrane subunit FhuB and ATPase FhuC) (Escherichia coli); test: SEC
[2] = biological target: T2, FhuB (membrane subunit, co-expressed with FhuC) (Escherichia coli); test: cryo-EM structure
[3] = biological target: T1, FhuCB subcomplex (wild type; membrane subunit FhuB and ATPase FhuC) (Escherichia coli); test: cryo-EM structure
[4] = biological target: T3, FhuC (ATPase subunit, His-tagged, co-expressed with FhuB) (Escherichia coli); test: SEC
[5] = biological target: T3, FhuC (ATPase subunit, His-tagged, co-expressed with FhuB) (Escherichia coli); test: cryo-EM structure

binding [1] | binding [2] | binding [3] | binding [4] | binding [5] | Binder
binds | binds | binds |  |  | B1
 | no binding |  | binds | binds | B2
